One substance from publication doi:10.1101/227918 can be followed below.

By UniProt entry, the sequences of proteins in these tests, tags left out.
UniProt Q9P126: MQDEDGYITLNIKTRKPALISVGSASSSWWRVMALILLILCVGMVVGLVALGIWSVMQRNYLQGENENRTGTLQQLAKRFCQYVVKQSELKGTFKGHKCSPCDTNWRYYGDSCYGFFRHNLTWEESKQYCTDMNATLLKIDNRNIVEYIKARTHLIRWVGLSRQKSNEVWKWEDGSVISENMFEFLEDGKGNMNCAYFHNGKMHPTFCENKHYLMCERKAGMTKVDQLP

The target of the test is T1, FLAG-human CD37 (human) (UniProt P11049).
T1 sequence: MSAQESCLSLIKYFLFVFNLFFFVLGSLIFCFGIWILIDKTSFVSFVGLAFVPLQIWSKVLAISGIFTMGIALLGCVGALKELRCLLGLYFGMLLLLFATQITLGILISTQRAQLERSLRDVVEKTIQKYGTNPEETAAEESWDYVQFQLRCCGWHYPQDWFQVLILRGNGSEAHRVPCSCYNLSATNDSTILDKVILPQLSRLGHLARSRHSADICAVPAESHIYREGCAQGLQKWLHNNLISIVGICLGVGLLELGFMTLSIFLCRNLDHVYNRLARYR
Nature of the test: co-IP.

No constants are given. Whether binding was seen depends on the method and setting. Binding seen in cells or lysates may run through a third protein. Some results given as binding are weak or reduced against the parent protein; the word gives no strength. Sequences can lack the tags named with a protein.

As to “human CLEC-2-MYC (C-type lectin-like receptor 2) (from UniProt Q9P126 1-229)”, the binding result was “binds”.
